Results are given in words; binding and its absence hold for the method and conditions named. In cells and extracts the contact can be indirect. Here binding means that the protein was enriched with, or labelled near, the bait; the list need not be complete. For some assays here: Where a sequence is shown, tags or fusion partners need not be part of it.

For experiment [1], the target named is T1, FLAG-OTUD6B isoform 1 (IF1) (UniProt Q8N6M0).
T1 sequence: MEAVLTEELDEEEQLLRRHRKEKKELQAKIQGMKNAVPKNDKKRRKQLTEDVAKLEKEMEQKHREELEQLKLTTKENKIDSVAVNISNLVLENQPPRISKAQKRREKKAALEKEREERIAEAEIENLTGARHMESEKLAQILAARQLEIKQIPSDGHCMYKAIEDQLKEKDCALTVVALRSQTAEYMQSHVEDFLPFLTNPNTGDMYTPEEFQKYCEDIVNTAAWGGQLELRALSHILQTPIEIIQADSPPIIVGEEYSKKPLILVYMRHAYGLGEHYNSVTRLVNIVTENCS
Description: affinity purification with mass spectrometry; FLAG-OTUD6B or FLAG-EV in 2 x 10^9 HEK293T cells; FLAG M2 beads from whole cell extract (150 mM NaCl, 50 mM Tris-HCl pH 7.5, 0.1% NP-40), elution with 3xFLAG peptide, nanoLC-MS/MS, label-free quantification.

Experiment [2] concerns the target myc-BioID2-OTUD6B fusion protein (UniProt Q8N6M0). Briefly: proximity labelling; BioID2: myc-BioID2-EV, myc-BioID2-OTUD6B-IF1 or -IF2 in HEK293T, 50 uM biotin for 16 h, modified RIPA lysis, strep-tactin resin, on-bead digestion, MS.

B1: LIN28B, endogenous in HEK293T cells (protein, UniProt Q6ZN17 1-250)
chain: MAEGGASKGGGEEPGKLPEPAEEESQVLRGTGHCKWFNVRMGFGFISMINREGSPLDIPVDVFVHQSKLFMEGFRSLKEGEPVEFTFKKSSKGLESIRVTGPGGSPCLGSERRPKGKTLQKRKPKGDRCYNCGGLDHHAKECSLPPQPKKCHYCQSIMHMVANCPHKNVAQPPASSQGRQEAESQPCTSTLPREVGGGHGCTSPPFPQEARAEISERSGRSPQEASSTKSSIAPEEQSKKGPSVQKRKKT
On to B1, for which the binding entry in experiment [1] and in experiment [2] was “binds” throughout.

The values above are taken from article PMC9574752.
